From patent publication US20090054314A1, “Combined use of DPP-IV inhibitors and gastrin compounds” (priority 2005, published 2009)
At least one structure is not confirmed: it was looked up by name or label, or the drawing left a doubt.

Test system: Nonobese diabetic (NOD) mice
Assay: Combination therapy with gastrin and a DPP-4 inhibitor in diabetic NOD mice: blood glucose
Format: in vivo
Settings: NOD female mice, DPP-4 inhibitor 250 mg/kg oral gavage once daily, gastrin 15 ug/kg s.c. twice daily

SMILES: CSCCC(NC(=O)C(Cc1c[nH]c2ccccc12)NC(=O)CNC(=O)C(Cc1ccc(O)cc1)NC(=O)C(C)NC(=O)C(CCC(=O)O)NC(=O)C(CCC(=O)O)NC(=O)C(CCC(=O)O)NC(=O)[C@H](CCC(=O)O)NC(=O)[C@H](CCC(=O)O)NC(=O)[C@H](CC(C)C)NC(=O)[C@H](Cc1c[nH]c2ccccc12)NC(=O)[C@@H]1CCCN1C(=O)CNC(=O)[C@@H](N)CCC(=O)O)C(=O)NC(CC(=O)O)C(=O)NC(Cc1ccccc1)C(N)=O (stereo in doubt) [Gastrin]
- Blood Glucose (0 weeks): 9.5 ± 0.4 mmol/L
- Blood Glucose (1 weeks): 8.2 ± 0.4 mmol/L
- Blood Glucose (2 weeks): 7.2 ± 0.4 mmol/L
- Blood Glucose (3 weeks): 9.0 ± 2.3 mmol/L
- Blood Glucose (4 weeks): 11.9 ± 3.8 mmol/L
